The subject of the test is PKC.

Drawing on patent US20060148828A1, “Combination comprising a CDK inhibitor and a topoisomerase 1 inhibitor for the treatment of cancer and other proliferative diseases” (Cyclacel Limited, priority 2003, published 2006), this text covers IC50 for one compound.

Each structure is given as a SMILES string.

For `CC[C@H](CO)Nc1nc(NCc2ccccc2)c2ncn(C(C)C)c2n1` [roscovitine, 6-benzylamino-2-[(R)-1-ethyl-2-hydroxyethylamino]-9-isopropylpurine], the IC50 – broadly, the midpoint of a concentration-inhibition curve – was over 50 µM.
